Read-outs that look alike come from different tables or passages of the source. Results are given in words; binding and its absence hold for the method and conditions named. For some of these results: Binding seen in cells or lysates may run through a third protein. Some entries that bind do so weakly or less than the wild type. Values belong to the molecule of their own block, whether it stands above or below them.
What was measured:
[1] = target: T1, Get3 (yeast two-hybrid bait) (yeast) (UniProt Q12154); test: two-hybrid; Get3 as bait, genomic library or directed TA protein preys (with or without their TMDs); Gal4-driven HIS3 reporter, growth on medium lacking histidine
T1 sequence: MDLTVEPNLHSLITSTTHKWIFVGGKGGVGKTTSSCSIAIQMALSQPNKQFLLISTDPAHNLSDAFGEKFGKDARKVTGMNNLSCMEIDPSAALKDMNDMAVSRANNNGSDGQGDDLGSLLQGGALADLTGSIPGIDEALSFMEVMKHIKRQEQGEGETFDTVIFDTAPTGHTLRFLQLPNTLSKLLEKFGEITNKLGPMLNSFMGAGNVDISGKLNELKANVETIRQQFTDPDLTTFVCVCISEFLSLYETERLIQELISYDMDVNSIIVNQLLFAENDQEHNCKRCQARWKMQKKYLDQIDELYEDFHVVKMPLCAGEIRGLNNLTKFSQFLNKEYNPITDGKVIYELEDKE

Sequences of proteins named here, by UniProt entry; tags and fusion partners are left off. Residues count along the entry.
UniProt Q01590, residues 197-340: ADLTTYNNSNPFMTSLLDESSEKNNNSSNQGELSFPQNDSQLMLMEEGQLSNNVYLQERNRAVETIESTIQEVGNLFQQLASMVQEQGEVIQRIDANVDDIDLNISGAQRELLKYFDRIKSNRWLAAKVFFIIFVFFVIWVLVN
UniProt P22214: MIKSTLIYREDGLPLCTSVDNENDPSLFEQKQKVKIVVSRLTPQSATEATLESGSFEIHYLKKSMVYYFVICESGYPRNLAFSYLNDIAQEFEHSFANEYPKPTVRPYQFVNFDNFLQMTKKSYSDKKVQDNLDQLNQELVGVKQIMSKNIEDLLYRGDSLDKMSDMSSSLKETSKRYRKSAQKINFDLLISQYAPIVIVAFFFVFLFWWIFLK
UniProt Q08144: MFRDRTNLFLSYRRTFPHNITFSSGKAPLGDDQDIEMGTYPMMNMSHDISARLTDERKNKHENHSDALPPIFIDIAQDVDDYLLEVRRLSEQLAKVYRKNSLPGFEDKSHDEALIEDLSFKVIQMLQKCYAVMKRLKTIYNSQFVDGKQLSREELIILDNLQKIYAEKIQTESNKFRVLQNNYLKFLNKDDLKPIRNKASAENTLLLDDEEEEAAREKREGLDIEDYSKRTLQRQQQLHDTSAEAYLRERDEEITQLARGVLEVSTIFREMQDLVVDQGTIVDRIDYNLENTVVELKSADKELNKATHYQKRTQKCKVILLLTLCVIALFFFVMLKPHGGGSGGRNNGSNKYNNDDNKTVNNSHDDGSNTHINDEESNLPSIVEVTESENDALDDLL

[2] = target: T1, Get3 (yeast two-hybrid bait) (yeast); test: as above; remark: listed apart in the source
[3] = target: T2, Get1/Get2 complex (endogenous, in microsomes of the Δget3 strain) (yeast (endogenous in microsomes of the Δget3 strain)) (UniProt P53192+P40056); test: co-sedimentation; recombinant Get3 incubated with microsomes from Δget3 or Δget1/2/3 strains with or without ATP, 30°C for 1 hr; flotation in an Optiprep gradient (166,000 x g, 3 hr, 4°C) separating microsomes from unbound protein; fractions blotted with αGet3; only the binder purified
T2 sequence 1: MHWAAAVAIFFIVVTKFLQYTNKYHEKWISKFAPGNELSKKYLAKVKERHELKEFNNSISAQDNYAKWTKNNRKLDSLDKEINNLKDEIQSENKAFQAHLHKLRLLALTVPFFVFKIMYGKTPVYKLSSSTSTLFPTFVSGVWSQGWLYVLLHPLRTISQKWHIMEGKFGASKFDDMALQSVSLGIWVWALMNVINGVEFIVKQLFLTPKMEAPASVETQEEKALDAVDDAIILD
T2 sequence 2: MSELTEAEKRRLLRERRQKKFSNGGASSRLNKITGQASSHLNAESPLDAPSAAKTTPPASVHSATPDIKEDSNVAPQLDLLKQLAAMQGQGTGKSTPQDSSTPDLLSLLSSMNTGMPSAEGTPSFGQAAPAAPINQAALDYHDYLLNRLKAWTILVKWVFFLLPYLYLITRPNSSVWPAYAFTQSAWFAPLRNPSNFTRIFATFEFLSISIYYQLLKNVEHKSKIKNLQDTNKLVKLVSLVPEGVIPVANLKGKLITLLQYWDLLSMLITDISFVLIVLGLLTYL

Get2-HA (yeast) = Get2-HA (yeast) (UniProt P40056); test: co-purification; epitope-tagged versions of Get1 and Get2 copurified from yeast; details in the Supplemental Data

binding [2]: no binding
B1: Fis1 (two-hybrid prey) (protein, UniProt P40515 1-155)
chain: MTKVDFWPTLKDAYEPLYPQQLEILRQQVVSEGGPTATIQSRFNYAWGLIKSTDVNDERLGVKILTDIYKEAESRRRECLYYLTIGCYKLGEYSMAKRYVDTLFEHERNNKQVGALKSMVEDKIQKETLKGVVVAGGVLAGAVAVASFFLRNKRR

binding [2]: binds
B2: Pex15 (two-hybrid prey) (protein, UniProt Q08215 1-383)
chain: MAASEIMNNLPMHSLDSSLRDLLNDDLFIESDESTKSVNDQRSEVFQECVNLFIKRDIKDCLEKMSEVGFIDITVFKSNPMILDLFVSACDIMPSFTKLGLTLQSEILNIFTLDTPQCIETRKIILGDLSKLLVINKFFRCCIKVIQFNLTDHTEQEEKTLELESIMSDFIFVYITKMRTTIDVVGLQELIEIFIFQVKVKLHHKKPSPNMYWALCKTLPKLSPTLKGLYLSKDVSIEDAILNSIDNKIQKDKAKSKGKQRGVKQKIHHFHEPMLHNSSEEQVKVEDAFNQRTSTDSRLQSTGTAPRKKNNDITVLAGSFWAVLKHHFTRSVLNKNGLLLTGLLLLLCLKKYKSLMAIFKHVPAAFHTVYPQIVGLLKLLASI

binding [3]: binds
B3: recombinant Get3 ATPase (enzyme, yeast, UniProt Q12154 1-354, looked up)
chain: T1 sequence
notes: Get3 (Arr4), yeast homolog of Asna1/TRC40, soluble cytosolic ATPase; also called Arr4; source: purified from Escherichia coli (Metz et al., 2006)

Further lines, the molecule ahead of its results:

Molecule: Sed5_(197–340) (from UniProt Q01590 197-340) (domain or fragment)
binding [1]: binds

Molecule: Sec22 (two-hybrid prey) (from UniProt P22214 1-214)
binding [1]: binds

Molecule: Tlg2 (two-hybrid prey) (from UniProt Q08144 1-397)
binding [1]: binds

B4: Get1-PC (protein, UniProt P53192 1-235)
chain: T2 sequence 1
binding (Get2-HA (yeast)): binds

From article PMC2572727, “The GET Complex Mediates Insertion of Tail-Anchored Proteins into the ER Membrane” (Cell, 2008)
